In publication PMC3143134:
Results are given in words; binding and its absence hold for the method and conditions named.

Target: human P58^IPK (residues 35-461; TPR domain and J domain) (human) (UniProt Q13217)
Experiment: SEC; Superdex 200 column, gel-filtration buffer 50 mM Tris-HCl pH 8.0, 300 mM NaCl; both purified

B1: human P58^IPK (residues 35-461; TPR domain and J domain) (domain or fragment, UniProt Q13217 35-461)
chain: ADVEKHLELGKKLLAAGQLADALSQFHAAVDGDPDNYIAYYRRATVFLAMGKSKAALPDLTKVIQLKMDFTAARLQRGHLLLKQGKLDEAEDDFKKVLKSNPSENEEKEAQSQLIKSDEMQRLRSQALNAFGSGDYTAAIAFLDKILEVCVWDAELRELRAECFIKEGEPRKAISDLKAASKLKNDNTEAFYKISTLYYQLGDHELSLSEVRECLKLDQDHKRCFAHYKQVKKLNKLIESAEELIRDGRYTDATSKYESVMKTEPSIAEYTVRSKERICHCFSKDEKPVEAIRVCSEVLQMEPDNVNALKDRAEAYLIEEMYDEAIQDYETAQEHNENDQQIREGLEKAQRLLKQSQKRDYYKILGVKRNAKKQEIIKAYRKLALQWHPDNFQNEEEKKKAEKKFIDIAAAKEVLSDPEMRKKFDDG
Question: Which binding does the source give for B1 here?
Answer: Its binding is “no binding”.
